# Some of the results follow.
# By UniProt entry, the sequences of proteins in these tests, tags left out. Where a name states a change or a piece, a line headed by the entry shows the natural chain unless it says otherwise.
# UniProt Q5T8P6: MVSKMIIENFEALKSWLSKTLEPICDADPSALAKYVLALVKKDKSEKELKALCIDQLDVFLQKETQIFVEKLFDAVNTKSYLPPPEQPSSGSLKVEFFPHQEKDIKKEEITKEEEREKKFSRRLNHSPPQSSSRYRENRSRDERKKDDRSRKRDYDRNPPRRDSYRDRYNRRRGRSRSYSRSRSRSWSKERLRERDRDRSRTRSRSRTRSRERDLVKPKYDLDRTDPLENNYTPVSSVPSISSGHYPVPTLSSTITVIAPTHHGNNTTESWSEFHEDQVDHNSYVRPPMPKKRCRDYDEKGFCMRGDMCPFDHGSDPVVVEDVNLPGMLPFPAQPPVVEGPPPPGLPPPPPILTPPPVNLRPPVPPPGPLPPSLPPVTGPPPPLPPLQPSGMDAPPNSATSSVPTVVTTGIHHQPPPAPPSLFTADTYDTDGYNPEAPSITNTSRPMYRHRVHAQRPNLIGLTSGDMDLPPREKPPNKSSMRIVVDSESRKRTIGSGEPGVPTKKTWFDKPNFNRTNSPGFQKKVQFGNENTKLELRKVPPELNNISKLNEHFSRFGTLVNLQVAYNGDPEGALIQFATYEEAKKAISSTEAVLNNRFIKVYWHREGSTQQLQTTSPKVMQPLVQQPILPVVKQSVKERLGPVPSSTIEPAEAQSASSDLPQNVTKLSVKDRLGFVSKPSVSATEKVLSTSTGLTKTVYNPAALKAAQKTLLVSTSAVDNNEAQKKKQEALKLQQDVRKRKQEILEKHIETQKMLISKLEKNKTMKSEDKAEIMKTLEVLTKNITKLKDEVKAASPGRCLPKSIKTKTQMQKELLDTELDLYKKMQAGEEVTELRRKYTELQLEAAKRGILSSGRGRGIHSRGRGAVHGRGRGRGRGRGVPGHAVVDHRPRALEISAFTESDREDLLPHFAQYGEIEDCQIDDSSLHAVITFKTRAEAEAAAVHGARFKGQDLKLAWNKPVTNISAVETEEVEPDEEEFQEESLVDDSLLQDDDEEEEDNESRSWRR
# UniProt Q99708: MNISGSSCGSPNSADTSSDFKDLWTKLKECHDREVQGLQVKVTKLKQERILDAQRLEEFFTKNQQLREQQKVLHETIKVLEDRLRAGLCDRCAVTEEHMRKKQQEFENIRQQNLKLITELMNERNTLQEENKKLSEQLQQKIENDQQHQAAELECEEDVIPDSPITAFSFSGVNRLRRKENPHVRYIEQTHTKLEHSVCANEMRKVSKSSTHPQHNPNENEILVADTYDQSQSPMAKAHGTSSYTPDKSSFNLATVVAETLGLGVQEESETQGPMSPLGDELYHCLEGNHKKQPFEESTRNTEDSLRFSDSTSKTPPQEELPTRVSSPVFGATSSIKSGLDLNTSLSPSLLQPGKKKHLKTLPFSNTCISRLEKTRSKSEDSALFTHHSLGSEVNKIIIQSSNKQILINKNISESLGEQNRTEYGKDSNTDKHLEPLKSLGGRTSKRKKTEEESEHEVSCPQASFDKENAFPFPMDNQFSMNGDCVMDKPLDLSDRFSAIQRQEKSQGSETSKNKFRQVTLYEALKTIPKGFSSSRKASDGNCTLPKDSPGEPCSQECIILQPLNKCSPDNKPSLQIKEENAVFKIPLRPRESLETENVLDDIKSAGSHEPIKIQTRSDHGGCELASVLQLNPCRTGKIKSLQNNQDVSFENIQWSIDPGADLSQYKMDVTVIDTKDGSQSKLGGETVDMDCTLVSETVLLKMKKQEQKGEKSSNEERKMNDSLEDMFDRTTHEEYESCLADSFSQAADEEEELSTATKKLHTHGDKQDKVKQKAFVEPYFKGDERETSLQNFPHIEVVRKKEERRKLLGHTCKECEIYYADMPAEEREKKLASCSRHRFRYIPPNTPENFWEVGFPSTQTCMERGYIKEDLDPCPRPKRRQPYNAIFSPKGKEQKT
# UniProt P98175: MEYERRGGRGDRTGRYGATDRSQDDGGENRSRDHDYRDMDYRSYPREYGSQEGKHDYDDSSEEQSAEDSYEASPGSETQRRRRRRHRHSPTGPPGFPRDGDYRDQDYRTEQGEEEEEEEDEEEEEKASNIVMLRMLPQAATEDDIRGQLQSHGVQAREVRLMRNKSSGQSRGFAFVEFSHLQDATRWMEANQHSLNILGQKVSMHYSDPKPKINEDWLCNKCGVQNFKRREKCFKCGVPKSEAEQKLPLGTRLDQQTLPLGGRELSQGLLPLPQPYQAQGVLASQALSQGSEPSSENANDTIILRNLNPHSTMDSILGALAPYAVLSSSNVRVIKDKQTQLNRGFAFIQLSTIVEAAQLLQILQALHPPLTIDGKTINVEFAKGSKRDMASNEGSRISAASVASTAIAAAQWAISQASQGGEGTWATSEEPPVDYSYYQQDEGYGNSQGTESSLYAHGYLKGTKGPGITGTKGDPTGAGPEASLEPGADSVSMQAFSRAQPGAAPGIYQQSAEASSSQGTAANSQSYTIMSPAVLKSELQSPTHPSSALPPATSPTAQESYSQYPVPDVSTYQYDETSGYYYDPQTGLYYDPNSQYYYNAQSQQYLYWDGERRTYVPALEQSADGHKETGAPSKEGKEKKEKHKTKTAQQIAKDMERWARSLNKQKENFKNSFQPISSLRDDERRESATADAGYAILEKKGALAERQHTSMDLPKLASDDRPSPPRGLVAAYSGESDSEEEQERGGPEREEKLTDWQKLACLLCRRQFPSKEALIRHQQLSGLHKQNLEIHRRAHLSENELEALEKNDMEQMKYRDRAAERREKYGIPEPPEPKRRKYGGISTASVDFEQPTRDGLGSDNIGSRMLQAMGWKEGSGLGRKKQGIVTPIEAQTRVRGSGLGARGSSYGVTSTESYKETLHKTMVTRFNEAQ
# UniProt P98179: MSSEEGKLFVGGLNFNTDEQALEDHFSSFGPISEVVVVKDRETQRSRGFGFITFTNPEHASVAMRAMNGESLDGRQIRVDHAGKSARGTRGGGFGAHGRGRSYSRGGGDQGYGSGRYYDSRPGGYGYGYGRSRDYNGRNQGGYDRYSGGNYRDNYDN
# UniProt Q16576, whole entry, looked up: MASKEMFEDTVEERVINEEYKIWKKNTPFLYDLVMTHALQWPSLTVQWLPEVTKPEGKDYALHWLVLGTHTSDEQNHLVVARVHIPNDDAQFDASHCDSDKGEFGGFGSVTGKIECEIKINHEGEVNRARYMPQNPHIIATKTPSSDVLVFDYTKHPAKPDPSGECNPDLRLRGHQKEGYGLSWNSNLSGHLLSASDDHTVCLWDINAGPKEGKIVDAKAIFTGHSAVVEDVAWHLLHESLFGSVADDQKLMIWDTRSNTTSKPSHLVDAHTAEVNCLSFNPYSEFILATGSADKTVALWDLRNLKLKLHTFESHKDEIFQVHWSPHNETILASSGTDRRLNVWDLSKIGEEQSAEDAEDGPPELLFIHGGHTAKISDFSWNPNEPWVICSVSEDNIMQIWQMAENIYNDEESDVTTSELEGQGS
# UniProt Q96HR9: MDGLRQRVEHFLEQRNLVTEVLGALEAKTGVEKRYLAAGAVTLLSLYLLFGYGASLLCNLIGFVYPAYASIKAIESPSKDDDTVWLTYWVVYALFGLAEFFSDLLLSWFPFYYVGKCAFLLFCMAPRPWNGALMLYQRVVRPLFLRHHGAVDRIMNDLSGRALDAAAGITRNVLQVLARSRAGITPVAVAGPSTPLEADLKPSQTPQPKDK
# UniProt P40937, whole entry, looked up: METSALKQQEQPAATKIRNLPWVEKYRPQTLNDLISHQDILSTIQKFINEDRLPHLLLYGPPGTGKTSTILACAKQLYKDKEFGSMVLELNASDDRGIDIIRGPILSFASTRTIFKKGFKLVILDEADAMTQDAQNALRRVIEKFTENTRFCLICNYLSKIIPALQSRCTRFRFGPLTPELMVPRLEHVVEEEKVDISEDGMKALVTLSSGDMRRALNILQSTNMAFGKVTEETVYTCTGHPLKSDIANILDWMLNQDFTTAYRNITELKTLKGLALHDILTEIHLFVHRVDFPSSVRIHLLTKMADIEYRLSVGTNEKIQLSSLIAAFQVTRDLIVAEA
# UniProt Q9UKL0, whole entry, looked up: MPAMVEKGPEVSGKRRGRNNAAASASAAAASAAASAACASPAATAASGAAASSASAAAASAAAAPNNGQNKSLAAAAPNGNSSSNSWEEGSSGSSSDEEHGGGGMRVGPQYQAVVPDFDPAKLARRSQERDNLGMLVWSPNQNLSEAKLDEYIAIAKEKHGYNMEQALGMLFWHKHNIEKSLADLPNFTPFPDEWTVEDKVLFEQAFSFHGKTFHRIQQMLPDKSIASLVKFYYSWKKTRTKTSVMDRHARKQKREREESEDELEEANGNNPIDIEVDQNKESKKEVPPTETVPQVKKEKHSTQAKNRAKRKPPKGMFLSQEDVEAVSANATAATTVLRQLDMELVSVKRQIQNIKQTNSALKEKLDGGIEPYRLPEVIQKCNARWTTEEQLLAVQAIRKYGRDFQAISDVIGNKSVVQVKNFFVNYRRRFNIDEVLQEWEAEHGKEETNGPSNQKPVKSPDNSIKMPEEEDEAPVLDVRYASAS
# UniProt P38159: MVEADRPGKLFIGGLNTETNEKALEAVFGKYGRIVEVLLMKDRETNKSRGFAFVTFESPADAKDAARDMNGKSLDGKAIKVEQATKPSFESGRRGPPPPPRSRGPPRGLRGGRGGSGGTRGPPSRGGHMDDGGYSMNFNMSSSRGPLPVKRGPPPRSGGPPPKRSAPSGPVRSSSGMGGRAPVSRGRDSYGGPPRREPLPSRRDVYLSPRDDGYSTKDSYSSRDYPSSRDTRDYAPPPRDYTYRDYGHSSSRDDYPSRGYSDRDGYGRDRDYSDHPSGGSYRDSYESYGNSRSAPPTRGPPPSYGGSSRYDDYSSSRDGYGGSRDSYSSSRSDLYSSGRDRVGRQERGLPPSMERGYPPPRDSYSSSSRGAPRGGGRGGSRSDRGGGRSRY
# UniProt Q06330: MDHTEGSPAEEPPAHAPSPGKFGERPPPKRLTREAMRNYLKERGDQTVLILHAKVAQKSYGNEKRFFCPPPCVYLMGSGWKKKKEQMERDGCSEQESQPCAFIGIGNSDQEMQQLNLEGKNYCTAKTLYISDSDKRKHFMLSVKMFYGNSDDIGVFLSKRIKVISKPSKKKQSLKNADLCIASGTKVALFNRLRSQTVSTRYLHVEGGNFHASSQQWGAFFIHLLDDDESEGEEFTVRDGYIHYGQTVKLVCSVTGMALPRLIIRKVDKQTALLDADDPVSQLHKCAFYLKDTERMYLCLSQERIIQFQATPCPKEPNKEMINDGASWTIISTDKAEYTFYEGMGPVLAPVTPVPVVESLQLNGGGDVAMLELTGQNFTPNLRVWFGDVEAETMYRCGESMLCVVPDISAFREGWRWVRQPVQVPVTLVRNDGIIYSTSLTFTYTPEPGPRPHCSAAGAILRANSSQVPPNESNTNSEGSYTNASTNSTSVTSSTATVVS
# UniProt P78332: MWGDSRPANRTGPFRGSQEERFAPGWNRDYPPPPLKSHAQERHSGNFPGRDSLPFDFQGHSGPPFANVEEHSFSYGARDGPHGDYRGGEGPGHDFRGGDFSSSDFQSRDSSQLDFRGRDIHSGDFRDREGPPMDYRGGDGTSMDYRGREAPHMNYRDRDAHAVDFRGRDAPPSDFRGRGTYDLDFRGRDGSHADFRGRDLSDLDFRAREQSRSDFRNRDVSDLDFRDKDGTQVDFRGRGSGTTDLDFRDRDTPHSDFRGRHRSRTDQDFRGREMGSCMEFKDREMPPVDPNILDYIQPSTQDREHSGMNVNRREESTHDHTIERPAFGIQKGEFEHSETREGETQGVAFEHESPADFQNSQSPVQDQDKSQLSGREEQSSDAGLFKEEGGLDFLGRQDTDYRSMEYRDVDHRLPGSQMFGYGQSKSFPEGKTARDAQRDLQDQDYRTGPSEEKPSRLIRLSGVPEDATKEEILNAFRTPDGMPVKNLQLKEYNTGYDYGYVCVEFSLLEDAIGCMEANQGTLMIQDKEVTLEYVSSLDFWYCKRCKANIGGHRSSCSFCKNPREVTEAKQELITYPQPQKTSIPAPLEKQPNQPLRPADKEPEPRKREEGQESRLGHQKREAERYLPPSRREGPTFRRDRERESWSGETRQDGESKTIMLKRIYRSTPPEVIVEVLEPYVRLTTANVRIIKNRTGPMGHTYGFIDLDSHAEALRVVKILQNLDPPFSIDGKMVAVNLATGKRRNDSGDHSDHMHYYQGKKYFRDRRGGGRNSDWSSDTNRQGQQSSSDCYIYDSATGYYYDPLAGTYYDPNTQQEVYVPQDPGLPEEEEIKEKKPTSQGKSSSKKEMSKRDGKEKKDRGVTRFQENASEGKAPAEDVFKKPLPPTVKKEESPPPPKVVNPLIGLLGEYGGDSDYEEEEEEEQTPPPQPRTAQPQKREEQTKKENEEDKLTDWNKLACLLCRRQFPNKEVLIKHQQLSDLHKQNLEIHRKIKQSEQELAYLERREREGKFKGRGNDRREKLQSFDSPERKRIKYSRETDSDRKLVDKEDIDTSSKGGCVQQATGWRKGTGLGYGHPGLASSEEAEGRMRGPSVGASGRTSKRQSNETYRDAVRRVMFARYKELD
# Experiments:
# Test in all cases: log2 fold change, soluble protein after heating vs DMSO (PISA); higher = thermal stabilisation; K562 lysate, 10 uM; active = over 0.2 and 3.5 SD of the protein, either way, in both replicates (recomputed)
# ibrutinib = compound: C=CC(=O)N1CCC[C@@H](n2nc(-c3ccc(Oc4ccccc4)cc3)c3c(N)ncnc32)C1 [ibrutinib]
# Outline: (§1)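 Quantification was by TMTpro 16plex LC-MS/MS with equalised channel sums, applied to the supernatant after 21,000xg for 90 min. Samples were crude K562 extract at 1 mg/mL protein in PBS pH 7.4 with 1 mM MgCl2, treated with 10 μM compound for 30 min, heated for 3 min across 48°C-58°C, pooled and brought to 0.5% NP-40 at 4°C. Values are log-two fold changes in thermal stability relative to solvent controls, from duplicates.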
# [1] = compound: CC(=O)c1cnc2ccc(-c3cc(Cl)c(O)c(Cl)c3)nc2c1N[C@H]1CC[C@H](CN(C)C)CC1
# Outline: as §1
# ralimetinib = compound: CC(C)(C)Cn1c(N)nc2ccc(-c3[nH]c(C(C)(C)C)nc3-c3ccc(F)cc3)nc21 [ralimetinib]
# Outline: as §1
# [2] = compound: CC(C)(O)CC(=O)NCCn1ccc2ncnc(Nc3ccc(Oc4cccc(C(F)(F)F)c4)c(Cl)c3)c21
# Outline: as §1
# [3] = compound: CC(C)C1=C2N=C(C=C(N2N=C1)NCC3=CC=CC=C3)NCCCCCCN
# Outline: as §1
# [4] = compound: CC1=C(C(CC(=O)N1)C2=CC=C(C=C2)C(F)(F)F)C(=O)NC3=C(C=C4C(=C3)C=NN4)F
# Outline: as §1
# [5] = compound: CC1=C(C2=C(C=C1)C(=O)C3=CC=CC=C3N2CCCN)C
# Outline: as §1
# [6] = compound: CC1=C(C=C(C=C1)NC(=O)C2=CC(=CC=C2)C(C)(C)C#N)NC3=CC4=C(C=C3)N=CN(C4=O)C
# Outline: as §1
# [7] = compound: CC1=C(C=C(C=C1)NC(=O)C2=CC(=CC=C2)N(C)C)NC(=O)C3=CC=C(C=C3)O
# Outline: as §1
# [8] = compound: CC1=CC=C(C=C1)SC2=C3C=C(SC3=CN=C2)C(=O)N
# Outline: as §1
Target,log2 fold change (ibrutinib),log2 fold change [1],log2 fold change (ralimetinib),log2 fold change [2],log2 fold change [3],log2 fold change [4],log2 fold change [5],log2 fold change [6],log2 fold change [7],log2 fold change [8]
RBM26 isoform 2 (UniProt Q5T8P6),inactive: 0.007,inactive: -0.009,inactive: -0.01,inactive: -0.013,inactive: 0.016,inactive: -0.017,inactive: 0.016,inactive: -0.006,inactive: 0.03,inactive: -0.005
RCC2 (UniProt Q9P258),inactive: -0.04,inactive: 0.011,inactive: 0.014,inactive: 0.016,inactive: 0.006,inactive: -0.014,inactive: 0.006,inactive: -0.003,inactive: 0.01,inactive: 0.027
RARS2 (UniProt Q5T160),inactive: 0.02,inactive: 0.009,inactive: 0.001,inactive: -0.019,inactive: 0.061,inactive: -0.026,inactive: -0.042,inactive: 0.005,inactive: -0.032,inactive: -0.009
RBBP8 isoform 2 (UniProt Q99708),inactive: -0.204,inactive: 0.005,inactive: -0.086,inactive: 0.011,inactive: -0.006,inactive: 0.003,inactive: -0.018,inactive: -0.066,inactive: -0.006,inactive: -0.143
RBM17 (UniProt Q96I25),inactive: 0.02,inactive: 0.002,inactive: -0.004,inactive: 0.007,inactive: 0.007,inactive: 0.036,inactive: 0,inactive: 0.002,inactive: 0.003,inactive: -0.001
RFLNB (UniProt Q8N5W9),inactive: 0.053,inactive: -0.016,inactive: -0.05,inactive: 0.013,inactive: 0.006,inactive: 0.134,inactive: 0.144,inactive: -0.065,inactive: 0.001,inactive: 0.103
RBL1 (UniProt P28749),inactive: -0.001,inactive: -0.031,inactive: 0.117,inactive: -0.01,inactive: 0.009,inactive: 0.181,inactive: -0.081,inactive: 0.024,inactive: 0.031,inactive: -0.07
REV3L (UniProt O60673),inactive: 0,inactive: 0.034,inactive: 0.018,inactive: -0.296,inactive: 0.064,inactive: 0.085,inactive: -0.12,inactive: 0.316,inactive: 0.024,inactive: -0.116
RBM10 isoform 5 (UniProt P98175),inactive: 0.003,inactive: 0.004,inactive: -0.025,inactive: -0.038,inactive: 0.019,inactive: 0.014,inactive: 0.005,inactive: 0.044,inactive: -0.02,inactive: -0.007
RBM3 (UniProt P98179),inactive: -0.012,inactive: 0.022,inactive: 0.077,inactive: 0.088,inactive: 0.003,inactive: -0.097,inactive: -0.007,inactive: -0.108,inactive: -0.005,inactive: 0.089
RBBP6 (UniProt Q7Z6E9),inactive: 0.039,inactive: 0.025,inactive: -0.015,inactive: -0.017,inactive: 0.029,inactive: 0.003,inactive: -0.049,inactive: 0,inactive: -0.003,inactive: 0.002
RBBP7 isoform 2 (UniProt Q16576),inactive: 0.016,inactive: 0.043,inactive: 0.062,inactive: 0.042,inactive: -0.028,inactive: -0.029,inactive: 0.011,inactive: -0.002,inactive: -0.001,inactive: 0.034
RFX1 (UniProt P22670),inactive: 0.021,inactive: 0.008,inactive: -0.001,inactive: -0.007,inactive: -0.018,inactive: 0.028,inactive: 0.023,inactive: 0.033,inactive: 0,inactive: -0.002
REEP6 (UniProt Q96HR9),inactive: -0.026,inactive: -0.026,inactive: 0.018,inactive: -0.029,inactive: -0.067,inactive: -0.006,inactive: -0.066,inactive: 0.084,inactive: 0.055,inactive: 0.038
RFFL (UniProt Q8WZ73),inactive: -0.249,inactive: 0.18,inactive: -0.111,inactive: -0.041,inactive: -0.027,inactive: -0.083,inactive: -0.07,inactive: -0.015,inactive: 0.041,inactive: -0.002
RFT1 (UniProt Q96AA3),inactive: 0.027,inactive: -0.038,inactive: 0.053,inactive: -0.014,inactive: -0.036,inactive: 0.02,inactive: -0.02,inactive: 0.025,inactive: -0.013,inactive: -0.07
RELN (UniProt P78509),inactive: 0.011,active: -0.237,inactive: 0.011,inactive: -0.038,inactive: -0.039,inactive: -0.01,inactive: 0,inactive: -0.002,inactive: 0.041,inactive: 0.09
RFC5 (UniProt P40937),inactive: -0.038,inactive: -0.001,inactive: 0.046,inactive: 0.02,inactive: 0.012,inactive: -0.002,inactive: -0.009,inactive: 0.014,inactive: 0.025,inactive: 0.018
RBM8A (UniProt Q9Y5S9),inactive: -0.001,inactive: -0.016,inactive: -0.011,inactive: 0.057,inactive: -0.038,inactive: -0.004,inactive: 0.066,inactive: -0.101,inactive: 0.035,inactive: 0.027
RCSD1 (UniProt Q6JBY9),inactive: 0.02,inactive: -0.005,inactive: -0.01,inactive: -0.022,inactive: 0.006,inactive: -0.012,inactive: -0.024,inactive: 0.027,inactive: 0.026,inactive: -0.012
RB1 (UniProt P06400),inactive: 0.017,inactive: -0.005,inactive: 0.006,inactive: -0.003,inactive: -0.005,inactive: 0.003,inactive: 0.007,inactive: -0.031,inactive: -0.021,inactive: 0.008
RCOR1 (UniProt Q9UKL0),inactive: 0.016,inactive: -0.001,inactive: 0.023,inactive: -0.028,inactive: 0.264,inactive: 0,inactive: 0.013,inactive: -0.049,inactive: 0.02,inactive: 0.021
RGP1 (UniProt Q92546),inactive: -0.005,inactive: -0.139,inactive: 0.037,inactive: 0.203,inactive: -0.047,inactive: 0.034,inactive: -0.06,inactive: 0.034,inactive: -0.005,inactive: -0.018
RELA (UniProt Q04206),inactive: -0.004,inactive: -0.025,inactive: 0.03,inactive: -0.037,inactive: 0.031,inactive: -0.01,inactive: 0.001,inactive: 0.013,inactive: -0.043,inactive: -0.016
RBMX (UniProt P38159),inactive: -0.034,inactive: -0.132,inactive: 0.004,inactive: 0.032,inactive: -0.029,inactive: -0.017,inactive: 0.035,inactive: -0.016,inactive: -0.016,inactive: -0.006
RBPJ (UniProt Q06330),inactive: 0.025,inactive: 0.042,inactive: 0.006,inactive: -0.02,inactive: 0.022,inactive: 0,inactive: -0.026,inactive: 0.013,inactive: -0.022,inactive: -0.002
RBM6 (UniProt P78332),inactive: -0.001,inactive: -0.054,inactive: 0.01,inactive: -0.043,inactive: -0.001,inactive: -0.025,inactive: -0.009,inactive: -0.002,inactive: -0.071,inactive: 0.116

# 2 entries drawn at random from those above, as already listed:
Target,log2 fold change (ibrutinib),log2 fold change [1],log2 fold change (ralimetinib),log2 fold change [2],log2 fold change [3],log2 fold change [4],log2 fold change [5],log2 fold change [6],log2 fold change [7],log2 fold change [8]
RBBP7 isoform 2 (UniProt Q16576),inactive: 0.016,inactive: 0.043,inactive: 0.062,inactive: 0.042,inactive: -0.028,inactive: -0.029,inactive: 0.011,inactive: -0.002,inactive: -0.001,inactive: 0.034
RBM17 (UniProt Q96I25),inactive: 0.02,inactive: 0.002,inactive: -0.004,inactive: 0.007,inactive: 0.007,inactive: 0.036,inactive: 0,inactive: 0.002,inactive: 0.003,inactive: -0.001
